Experimental data from the supplement of paper PMC12823440, “Inhibitors supercharge kinase turnover through native proteolytic circuits” (Nature, 2025).
Where a name gives a salt, the structure may show the parent alone. This is one part of the list. The calls rarely recur for the same compound in another form.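 Kinases were expressed as nanoluciferase fusions in K562 cells and luminescence was read every 4 h between 2 and 18 h as percent of control, DMSO set to 100% and a positive control to 0%. A time point counts as decreased when the signal drops significantly (2 sigma). The hit call is the authors' own, does not follow from the count of time points alone, and its rule is not shown.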

By UniProt entry, the sequences of proteins in these tests, tags left out. Where a name states a change or a piece, a line headed by the entry shows the natural chain unless it says otherwise.
UniProt P28482, whole entry: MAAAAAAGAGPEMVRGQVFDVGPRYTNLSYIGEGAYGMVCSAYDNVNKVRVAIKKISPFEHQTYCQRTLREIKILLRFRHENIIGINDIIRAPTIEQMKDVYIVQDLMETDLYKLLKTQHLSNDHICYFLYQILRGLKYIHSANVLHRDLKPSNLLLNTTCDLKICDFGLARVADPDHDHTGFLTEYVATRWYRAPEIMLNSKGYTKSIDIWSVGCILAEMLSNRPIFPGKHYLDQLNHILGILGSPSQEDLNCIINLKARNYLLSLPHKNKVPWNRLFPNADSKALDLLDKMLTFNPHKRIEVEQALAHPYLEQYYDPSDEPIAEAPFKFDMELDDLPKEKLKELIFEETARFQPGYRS
UniProt P49137, whole entry, looked up: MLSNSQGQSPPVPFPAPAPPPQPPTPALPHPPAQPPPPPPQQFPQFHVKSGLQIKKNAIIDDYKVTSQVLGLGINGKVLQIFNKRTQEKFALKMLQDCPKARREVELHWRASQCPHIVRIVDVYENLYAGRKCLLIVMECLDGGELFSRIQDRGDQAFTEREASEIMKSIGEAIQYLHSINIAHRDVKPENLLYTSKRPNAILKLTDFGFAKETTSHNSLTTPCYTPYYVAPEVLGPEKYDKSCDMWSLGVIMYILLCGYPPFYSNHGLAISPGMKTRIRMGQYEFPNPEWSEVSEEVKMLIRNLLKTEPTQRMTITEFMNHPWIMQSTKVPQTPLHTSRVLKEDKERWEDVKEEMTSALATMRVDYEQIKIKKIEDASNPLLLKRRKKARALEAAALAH
UniProt Q16288, whole entry, looked up: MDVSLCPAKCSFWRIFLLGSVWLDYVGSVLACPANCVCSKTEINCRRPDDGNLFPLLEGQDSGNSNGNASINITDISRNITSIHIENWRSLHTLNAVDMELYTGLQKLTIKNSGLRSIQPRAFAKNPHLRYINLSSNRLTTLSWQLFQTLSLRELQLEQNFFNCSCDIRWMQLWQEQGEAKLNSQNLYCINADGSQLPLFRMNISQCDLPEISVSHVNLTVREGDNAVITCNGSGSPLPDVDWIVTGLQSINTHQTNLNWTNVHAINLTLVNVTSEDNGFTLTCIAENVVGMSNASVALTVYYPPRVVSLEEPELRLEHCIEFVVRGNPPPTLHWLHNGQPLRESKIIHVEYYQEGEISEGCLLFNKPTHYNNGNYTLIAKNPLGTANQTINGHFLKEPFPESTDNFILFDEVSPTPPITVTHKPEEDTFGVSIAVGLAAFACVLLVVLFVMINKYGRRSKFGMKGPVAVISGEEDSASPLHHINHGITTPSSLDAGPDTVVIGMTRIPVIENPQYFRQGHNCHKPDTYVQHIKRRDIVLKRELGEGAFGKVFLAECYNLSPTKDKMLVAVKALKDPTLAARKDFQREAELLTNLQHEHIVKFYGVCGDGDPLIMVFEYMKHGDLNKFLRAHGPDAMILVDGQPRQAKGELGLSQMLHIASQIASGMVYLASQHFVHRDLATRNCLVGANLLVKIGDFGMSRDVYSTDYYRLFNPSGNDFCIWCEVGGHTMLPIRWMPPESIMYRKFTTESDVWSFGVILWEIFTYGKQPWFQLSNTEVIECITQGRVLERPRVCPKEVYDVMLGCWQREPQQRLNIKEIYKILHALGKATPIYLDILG
UniProt Q96KB5: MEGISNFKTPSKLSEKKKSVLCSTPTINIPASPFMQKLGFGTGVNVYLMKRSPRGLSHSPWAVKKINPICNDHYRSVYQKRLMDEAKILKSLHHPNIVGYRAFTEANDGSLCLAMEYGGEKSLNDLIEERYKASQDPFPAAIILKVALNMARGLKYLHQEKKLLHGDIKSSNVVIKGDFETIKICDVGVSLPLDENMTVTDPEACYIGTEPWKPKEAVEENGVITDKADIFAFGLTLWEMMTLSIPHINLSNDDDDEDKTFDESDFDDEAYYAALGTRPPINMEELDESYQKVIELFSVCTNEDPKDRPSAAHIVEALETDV
UniProt Q15118, whole entry, looked up: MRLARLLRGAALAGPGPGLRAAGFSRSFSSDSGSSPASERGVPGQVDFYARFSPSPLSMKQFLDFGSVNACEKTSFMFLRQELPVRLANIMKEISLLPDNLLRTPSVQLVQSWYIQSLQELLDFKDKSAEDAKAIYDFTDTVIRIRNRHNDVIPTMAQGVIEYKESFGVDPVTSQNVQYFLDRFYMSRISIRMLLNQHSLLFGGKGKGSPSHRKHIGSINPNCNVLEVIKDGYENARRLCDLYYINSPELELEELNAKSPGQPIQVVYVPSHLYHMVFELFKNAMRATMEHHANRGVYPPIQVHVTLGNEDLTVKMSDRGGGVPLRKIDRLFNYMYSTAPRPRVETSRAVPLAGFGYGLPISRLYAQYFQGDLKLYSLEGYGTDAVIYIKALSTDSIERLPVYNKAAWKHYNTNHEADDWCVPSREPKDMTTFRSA
UniProt O15530: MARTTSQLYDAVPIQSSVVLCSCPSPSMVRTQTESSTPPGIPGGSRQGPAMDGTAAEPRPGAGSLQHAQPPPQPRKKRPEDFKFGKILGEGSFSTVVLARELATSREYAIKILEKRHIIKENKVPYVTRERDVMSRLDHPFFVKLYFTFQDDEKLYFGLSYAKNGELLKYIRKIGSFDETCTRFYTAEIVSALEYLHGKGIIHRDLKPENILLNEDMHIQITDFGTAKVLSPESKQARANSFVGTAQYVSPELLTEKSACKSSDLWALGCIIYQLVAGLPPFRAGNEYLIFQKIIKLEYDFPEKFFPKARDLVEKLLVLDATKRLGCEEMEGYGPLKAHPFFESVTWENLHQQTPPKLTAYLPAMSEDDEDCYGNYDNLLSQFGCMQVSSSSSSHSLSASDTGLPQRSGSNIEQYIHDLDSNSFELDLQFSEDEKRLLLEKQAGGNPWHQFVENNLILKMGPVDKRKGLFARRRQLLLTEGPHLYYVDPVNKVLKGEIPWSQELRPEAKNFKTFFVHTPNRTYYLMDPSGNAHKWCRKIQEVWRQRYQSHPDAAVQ
UniProt Q9UBF8: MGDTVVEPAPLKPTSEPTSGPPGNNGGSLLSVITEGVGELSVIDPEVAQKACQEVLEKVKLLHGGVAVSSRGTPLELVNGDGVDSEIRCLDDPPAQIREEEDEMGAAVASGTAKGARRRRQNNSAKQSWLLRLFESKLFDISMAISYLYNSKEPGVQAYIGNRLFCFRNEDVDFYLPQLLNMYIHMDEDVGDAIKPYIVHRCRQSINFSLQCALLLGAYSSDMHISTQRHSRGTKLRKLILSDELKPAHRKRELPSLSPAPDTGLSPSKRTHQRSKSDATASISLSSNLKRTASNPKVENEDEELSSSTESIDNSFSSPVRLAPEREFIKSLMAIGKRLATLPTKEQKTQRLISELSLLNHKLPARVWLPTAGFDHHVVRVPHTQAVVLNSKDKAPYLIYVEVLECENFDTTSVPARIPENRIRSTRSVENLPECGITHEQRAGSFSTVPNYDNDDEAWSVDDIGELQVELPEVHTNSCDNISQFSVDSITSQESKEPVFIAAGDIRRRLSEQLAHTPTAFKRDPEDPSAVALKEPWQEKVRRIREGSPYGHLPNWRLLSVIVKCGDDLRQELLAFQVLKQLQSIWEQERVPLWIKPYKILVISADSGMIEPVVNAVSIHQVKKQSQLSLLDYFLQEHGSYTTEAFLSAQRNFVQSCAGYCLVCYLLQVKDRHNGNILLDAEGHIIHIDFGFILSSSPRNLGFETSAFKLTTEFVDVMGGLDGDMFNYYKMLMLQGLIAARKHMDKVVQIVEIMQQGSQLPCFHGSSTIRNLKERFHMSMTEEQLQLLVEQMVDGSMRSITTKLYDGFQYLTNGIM
UniProt P53350, whole entry: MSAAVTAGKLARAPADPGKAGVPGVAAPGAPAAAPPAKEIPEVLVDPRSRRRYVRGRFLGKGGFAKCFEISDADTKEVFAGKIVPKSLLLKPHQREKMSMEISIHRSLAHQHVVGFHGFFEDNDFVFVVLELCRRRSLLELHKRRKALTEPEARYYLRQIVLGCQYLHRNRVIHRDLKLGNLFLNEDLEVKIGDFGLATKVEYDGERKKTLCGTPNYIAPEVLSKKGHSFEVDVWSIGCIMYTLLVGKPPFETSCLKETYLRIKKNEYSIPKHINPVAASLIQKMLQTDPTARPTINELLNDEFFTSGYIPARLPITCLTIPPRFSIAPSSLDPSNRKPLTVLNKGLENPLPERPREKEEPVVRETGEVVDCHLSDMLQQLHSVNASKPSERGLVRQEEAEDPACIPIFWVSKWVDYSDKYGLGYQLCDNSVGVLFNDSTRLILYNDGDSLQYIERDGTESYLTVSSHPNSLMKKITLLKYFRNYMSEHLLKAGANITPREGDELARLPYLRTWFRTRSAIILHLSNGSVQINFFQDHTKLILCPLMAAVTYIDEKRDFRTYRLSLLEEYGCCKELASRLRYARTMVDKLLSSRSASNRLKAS
UniProt Q13131: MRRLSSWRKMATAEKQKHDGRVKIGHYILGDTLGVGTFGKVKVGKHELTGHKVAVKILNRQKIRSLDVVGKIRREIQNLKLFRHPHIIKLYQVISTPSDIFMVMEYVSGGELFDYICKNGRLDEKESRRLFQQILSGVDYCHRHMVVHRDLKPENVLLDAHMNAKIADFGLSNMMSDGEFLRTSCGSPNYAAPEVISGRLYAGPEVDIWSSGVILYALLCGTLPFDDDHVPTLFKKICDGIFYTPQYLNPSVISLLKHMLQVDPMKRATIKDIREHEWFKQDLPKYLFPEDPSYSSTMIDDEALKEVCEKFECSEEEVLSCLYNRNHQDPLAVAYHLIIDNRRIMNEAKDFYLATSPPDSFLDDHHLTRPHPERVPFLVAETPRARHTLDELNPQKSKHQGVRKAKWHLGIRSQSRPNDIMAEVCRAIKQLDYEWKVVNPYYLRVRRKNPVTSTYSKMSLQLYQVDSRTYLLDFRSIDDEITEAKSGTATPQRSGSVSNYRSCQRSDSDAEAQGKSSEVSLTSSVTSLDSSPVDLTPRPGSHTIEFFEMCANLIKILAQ
UniProt Q14289, whole entry, looked up: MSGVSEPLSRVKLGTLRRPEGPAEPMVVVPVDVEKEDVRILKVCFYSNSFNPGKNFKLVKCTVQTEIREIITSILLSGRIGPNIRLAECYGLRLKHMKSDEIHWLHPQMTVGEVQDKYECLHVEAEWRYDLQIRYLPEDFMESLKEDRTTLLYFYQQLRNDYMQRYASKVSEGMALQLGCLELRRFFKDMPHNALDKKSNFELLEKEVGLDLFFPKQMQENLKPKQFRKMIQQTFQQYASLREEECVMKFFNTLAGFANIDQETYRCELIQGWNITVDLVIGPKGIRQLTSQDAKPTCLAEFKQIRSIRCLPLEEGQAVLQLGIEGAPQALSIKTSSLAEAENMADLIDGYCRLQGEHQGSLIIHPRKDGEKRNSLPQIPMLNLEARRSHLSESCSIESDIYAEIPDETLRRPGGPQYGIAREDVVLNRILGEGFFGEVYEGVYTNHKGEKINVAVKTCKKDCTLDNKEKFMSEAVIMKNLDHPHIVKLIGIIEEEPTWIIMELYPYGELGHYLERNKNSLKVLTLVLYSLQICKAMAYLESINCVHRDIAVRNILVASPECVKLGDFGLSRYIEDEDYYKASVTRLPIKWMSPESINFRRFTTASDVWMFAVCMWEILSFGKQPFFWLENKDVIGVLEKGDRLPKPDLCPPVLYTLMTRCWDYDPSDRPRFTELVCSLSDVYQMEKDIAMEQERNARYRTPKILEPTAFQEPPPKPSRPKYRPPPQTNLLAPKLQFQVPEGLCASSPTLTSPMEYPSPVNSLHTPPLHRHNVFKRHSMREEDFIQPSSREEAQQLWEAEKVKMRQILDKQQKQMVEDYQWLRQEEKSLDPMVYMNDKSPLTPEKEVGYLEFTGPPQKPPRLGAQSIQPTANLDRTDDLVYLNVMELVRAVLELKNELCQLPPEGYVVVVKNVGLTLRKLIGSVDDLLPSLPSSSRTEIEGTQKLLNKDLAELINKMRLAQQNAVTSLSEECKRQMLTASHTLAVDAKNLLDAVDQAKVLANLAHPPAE

How the values were obtained:
Assay in all cases: kinase-Nluc reporter destabilization hit call (1 = scored as downregulated) (binary); higher = compound decreases kinase abundance
Settings in all cases: K562, 2-18 h
[1] = molecular target: MAPK1 (UniProt P28482)
[2] = molecular target: MAPK4 (UniProt P31152)
[3] = molecular target: MAPKAPK2 (UniProt P49137)
[4] = molecular target: MKNK1 (UniProt Q9BUB5)
[5] = molecular target: NTRK2 (UniProt Q16620)
[6] = molecular target: NTRK3 (UniProt Q16288)
[7] = molecular target: PAK4 (UniProt O96013)
[8] = molecular target: PBK (UniProt Q96KB5)
[9] = molecular target: PDK1 (UniProt Q15118)
[10] = molecular target: PDPK1 (UniProt O15530)
[11] = molecular target: PIK4CA (UniProt P42356)
[12] = molecular target: PIK4CB (UniProt Q9UBF8)
[13] = molecular target: PLK1 (UniProt P53350)
[14] = molecular target: PRKAA1 (UniProt Q13131)
[15] = molecular target: PRKCA (UniProt P17252)
[16] = molecular target: PTK2 (UniProt Q05397)
[17] = molecular target: PTK2B (UniProt Q14289)
[18] = molecular target: RAF1 (UniProt P04049)
[19] = molecular target: RAF1_S257L (clone: RAF1_mut) (UniProt P04049)
[20] = molecular target: PDGFRB (UniProt P09619)

Measured: kinase-Nluc reporter destabilization hit call

Nc1ncnc2c1c(-c1cnc3[nH]ccc3c1)nn2C1CCCC1
inactive: [1]; 2.5 µM 0 | [2]; 2.5 µM 0 | [3]; 2.5 µM 0 | [4]; 2.5 µM 0 | [5]; 2.5 µM 0 | [6]; 2.5 µM 0 | [7]; 2.5 µM 0 | [8]; 2.5 µM 0 | [9]; 2.5 µM 0 | [10]; 2.5 µM 0 | [11]; 2.5 µM 0 | [12]; 2.5 µM 0 | [13]; 2.5 µM 0 | [14]; 2.5 µM 0 | [15]; 2.5 µM 0 | [16]; 2.5 µM 0 | [17]; 2.5 µM 0 | [18]; 2.5 µM 0 | [19]; 2.5 µM 0

CC[C@@H]1C(=O)N(C)c2cnc(Nc3ccc(C(=O)NC4CCN(C)CC4)cc3OC)nc2N1C1CCCC1
inactive: [1]; 10 µM 0 | [2]; 10 µM 0 | [3]; 10 µM 0 | [4]; 10 µM 0 | [5]; 10 µM 0 | [6]; 10 µM 0 | [7]; 10 µM 0 | [8]; 10 µM 0 | [20]; 10 µM 0 | [9]; 10 µM 0 | [10]; 10 µM 0 | [11]; 10 µM 0 | [12]; 10 µM 0 | [14]; 10 µM 0 | [15]; 10 µM 0 | [16]; 10 µM 0 | [17]; 10 µM 0 | [18]; 10 µM 0 | [19]; 10 µM 0

O=S(=O)(c1cccc2c(O)nccc12)N1CCCNCC1 [Hydroxyfasudil]
inactive: [2]; 10 µM 0 | [4]; 10 µM 0 | [5]; 10 µM 0 | [6]; 10 µM 0 | [7]; 10 µM 0 | [8]; 10 µM 0 | [20]; 10 µM 0 | [9]; 10 µM 0 | [10]; 10 µM 0 | [11]; 10 µM 0 | [12]; 10 µM 0 | [14]; 10 µM 0 | [15]; 10 µM 0 | [17]; 10 µM 0 | [18]; 10 µM 0 | [19]; 10 µM 0

Cc1cc(Nc2cc(N3CCN(C)CC3)nc(/C=C/c3ccccc3)n2)n[nH]1
inactive: [1]; 2.5 µM 0 | [2]; 2.5 µM 0 | [3]; 2.5 µM 0 | [4]; 2.5 µM 0 | [5]; 2.5 µM 0 | [6]; 2.5 µM 0 | [7]; 2.5 µM 0 | [8]; 2.5 µM 0 | [9]; 2.5 µM 0 | [10]; 2.5 µM 0 | [11]; 2.5 µM 0 | [12]; 2.5 µM 0 | [13]; 2.5 µM 0 | [14]; 2.5 µM 0 | [15]; 2.5 µM 0 | [17]; 2.5 µM 0 | [18]; 2.5 µM 0 | [19]; 2.5 µM 0

NC(=O)c1c(OCc2c(F)cc(Br)cc2F)nsc1NC(=O)NCCCCN1CCCC1
inactive: [1]; 2.5 µM 0 | [2]; 2.5 µM 0 | [3]; 2.5 µM 0 | [4]; 2.5 µM 0 | [5]; 2.5 µM 0 | [6]; 2.5 µM 0 | [7]; 2.5 µM 0 | [8]; 2.5 µM 0 | [9]; 2.5 µM 0 | [10]; 2.5 µM 0 | [11]; 2.5 µM 0 | [12]; 2.5 µM 0 | [13]; 2.5 µM 0 | [14]; 2.5 µM 0 | [15]; 2.5 µM 0 | [16]; 2.5 µM 0 | [17]; 2.5 µM 0 | [18]; 2.5 µM 0 | [19]; 2.5 µM 0

Cc1cnc(Nc2ccc(OCCN3CCCC3)cc2)nc1Nc1cccc(S(=O)(=O)NC(C)(C)C)c1 [Fedratinib (hydrochloride hydrate)]
inactive: [1]; 2.5 µM 0 | [2]; 2.5 µM 0 | [3]; 2.5 µM 0 | [4]; 2.5 µM 0 | [5]; 2.5 µM 0 | [7]; 2.5 µM 0 | [8]; 2.5 µM 0 | [20]; 2.5 µM 0 | [9]; 2.5 µM 0 | [10]; 2.5 µM 0 | [11]; 2.5 µM 0 | [12]; 2.5 µM 0 | [13]; 2.5 µM 0 | [14]; 2.5 µM 0 | [15]; 2.5 µM 0 | [16]; 2.5 µM 0 | [17]; 2.5 µM 0 | [18]; 2.5 µM 0 | [19]; 2.5 µM 0

CN1CCN(c2nc(C3=C(c4c[nH]c5ccccc45)C(=O)NC3=O)c3ccccc3n2)CC1 [Sotrastaurin]
inactive: [1]; 2.5 µM 0 | [2]; 2.5 µM 0 | [3]; 2.5 µM 0 | [4]; 2.5 µM 0 | [5]; 2.5 µM 0 | [6]; 2.5 µM 0 | [7]; 2.5 µM 0 | [8]; 2.5 µM 0 | [9]; 2.5 µM 0 | [10]; 2.5 µM 0 | [11]; 2.5 µM 0 | [12]; 2.5 µM 0 | [13]; 2.5 µM 0 | [14]; 2.5 µM 0 | [15]; 2.5 µM 0 | [16]; 2.5 µM 0 | [17]; 2.5 µM 0 | [18]; 2.5 µM 0 | [19]; 2.5 µM 0

O=C1NCCc2[nH]c(-c3ccncc3)cc21
inactive: [1]; 2.5 µM 0 | [2]; 2.5 µM 0 | [4]; 2.5 µM 0 | [5]; 2.5 µM 0 | [6]; 2.5 µM 0 | [7]; 2.5 µM 0 | [8]; 2.5 µM 0 | [9]; 2.5 µM 0 | [10]; 2.5 µM 0 | [11]; 2.5 µM 0 | [12]; 2.5 µM 0 | [14]; 2.5 µM 0 | [15]; 2.5 µM 0 | [16]; 2.5 µM 0 | [17]; 2.5 µM 0 | [18]; 2.5 µM 0 | [19]; 2.5 µM 0

Cn1cc(/C=C2\C(=O)Nc3cccnc32)c2ccccc21
inactive: [1]; 10 µM 0 | [2]; 10 µM 0 | [4]; 10 µM 0 | [5]; 10 µM 0 | [6]; 10 µM 0 | [7]; 10 µM 0 | [8]; 10 µM 0 | [20]; 10 µM 0 | [10]; 10 µM 0 | [11]; 10 µM 0 | [12]; 10 µM 0 | [13]; 10 µM 0 | [14]; 10 µM 0 | [15]; 10 µM 0 | [16]; 10 µM 0 | [17]; 10 µM 0 | [18]; 10 µM 0 | [19]; 10 µM 0

Two entries drawn at random from the list so far, as already listed:
CN1CCN(c2nc(C3=C(c4c[nH]c5ccccc45)C(=O)NC3=O)c3ccccc3n2)CC1 [Sotrastaurin]
inactive: [1]; 2.5 µM 0 | [2]; 2.5 µM 0 | [3]; 2.5 µM 0 | [4]; 2.5 µM 0 | [5]; 2.5 µM 0 | [6]; 2.5 µM 0 | [7]; 2.5 µM 0 | [8]; 2.5 µM 0 | [9]; 2.5 µM 0 | [10]; 2.5 µM 0 | [11]; 2.5 µM 0 | [12]; 2.5 µM 0 | [13]; 2.5 µM 0 | [14]; 2.5 µM 0 | [15]; 2.5 µM 0 | [16]; 2.5 µM 0 | [17]; 2.5 µM 0 | [18]; 2.5 µM 0 | [19]; 2.5 µM 0

NC(=O)c1c(OCc2c(F)cc(Br)cc2F)nsc1NC(=O)NCCCCN1CCCC1
inactive: [1]; 2.5 µM 0 | [2]; 2.5 µM 0 | [3]; 2.5 µM 0 | [4]; 2.5 µM 0 | [5]; 2.5 µM 0 | [6]; 2.5 µM 0 | [7]; 2.5 µM 0 | [8]; 2.5 µM 0 | [9]; 2.5 µM 0 | [10]; 2.5 µM 0 | [11]; 2.5 µM 0 | [12]; 2.5 µM 0 | [13]; 2.5 µM 0 | [14]; 2.5 µM 0 | [15]; 2.5 µM 0 | [16]; 2.5 µM 0 | [17]; 2.5 µM 0 | [18]; 2.5 µM 0 | [19]; 2.5 µM 0

The list continues.

Cc1cnc(Nc2ccc(OCCN3CCCC3)cc2)nc1Nc1cccc(S(=O)(=O)NC(C)(C)C)c1 [Fedratinib]
inactive: [1]; 2.5 µM 0 | [2]; 2.5 µM 0 | [3]; 2.5 µM 0 | [4]; 2.5 µM 0 | [5]; 2.5 µM 0 | [7]; 2.5 µM 0 | [8]; 2.5 µM 0 | [20]; 2.5 µM 0 | [9]; 2.5 µM 0 | [10]; 2.5 µM 0 | [11]; 2.5 µM 0 | [12]; 2.5 µM 0 | [13]; 2.5 µM 0 | [14]; 2.5 µM 0 | [15]; 2.5 µM 0 | [16]; 2.5 µM 0 | [17]; 2.5 µM 0 | [18]; 2.5 µM 0 | [19]; 2.5 µM 0

Cc1cc2ncnn2cc1Nc1ncc2c(n1)n(C1CCOCC1)c(=O)n2C
inactive: [1]; 10 µM 0 | [3]; 10 µM 0 | [4]; 10 µM 0 | [5]; 10 µM 0 | [7]; 10 µM 0 | [8]; 10 µM 0 | [9]; 10 µM 0 | [10]; 10 µM 0 | [11]; 10 µM 0 | [12]; 10 µM 0 | [13]; 10 µM 0 | [14]; 10 µM 0 | [15]; 10 µM 0 | [16]; 10 µM 0 | [17]; 10 µM 0 | [19]; 10 µM 0

CC(=O)c1c(C)c2cnc(Nc3ccc(N4CCN(C(=O)CCCCCC(=O)N[C@H](C(=O)N5C[C@H](O)C[C@H]5C(=O)NCc5ccc(-c6scnc6C)cc5)C(C)(C)C)CC4)cn3)nc2n(C2CCCC2)c1=O
inactive: [1]; 2.5 µM 0 | [2]; 2.5 µM 0 | [3]; 2.5 µM 0 | [4]; 2.5 µM 0 | [5]; 2.5 µM 0 | [7]; 2.5 µM 0 | [8]; 2.5 µM 0 | [9]; 2.5 µM 0 | [10]; 2.5 µM 0 | [11]; 2.5 µM 0 | [12]; 2.5 µM 0 | [13]; 2.5 µM 0 | [14]; 2.5 µM 0 | [15]; 2.5 µM 0 | [16]; 2.5 µM 0 | [17]; 2.5 µM 0 | [19]; 2.5 µM 0

O=S(=O)(c1cccc2c(O)nccc12)N1CCCNCC1 [Hydroxyfasudil (hydrochloride)]
inactive: [2]; 10 µM 0 | [4]; 10 µM 0 | [6]; 10 µM 0 | [7]; 10 µM 0 | [8]; 10 µM 0 | [20]; 10 µM 0 | [9]; 10 µM 0 | [10]; 10 µM 0 | [11]; 10 µM 0 | [12]; 10 µM 0 | [14]; 10 µM 0 | [15]; 10 µM 0 | [17]; 10 µM 0 | [18]; 10 µM 0 | [19]; 10 µM 0
